Results reported in PMC11236980.
These are yes or no findings as the source states them, for the method shown. In cells and extracts the contact can be indirect. Some entries that bind do so weakly or less than the wild type.

Amino acid sequences for entries named in this document (tags omitted).
UniProt O75417: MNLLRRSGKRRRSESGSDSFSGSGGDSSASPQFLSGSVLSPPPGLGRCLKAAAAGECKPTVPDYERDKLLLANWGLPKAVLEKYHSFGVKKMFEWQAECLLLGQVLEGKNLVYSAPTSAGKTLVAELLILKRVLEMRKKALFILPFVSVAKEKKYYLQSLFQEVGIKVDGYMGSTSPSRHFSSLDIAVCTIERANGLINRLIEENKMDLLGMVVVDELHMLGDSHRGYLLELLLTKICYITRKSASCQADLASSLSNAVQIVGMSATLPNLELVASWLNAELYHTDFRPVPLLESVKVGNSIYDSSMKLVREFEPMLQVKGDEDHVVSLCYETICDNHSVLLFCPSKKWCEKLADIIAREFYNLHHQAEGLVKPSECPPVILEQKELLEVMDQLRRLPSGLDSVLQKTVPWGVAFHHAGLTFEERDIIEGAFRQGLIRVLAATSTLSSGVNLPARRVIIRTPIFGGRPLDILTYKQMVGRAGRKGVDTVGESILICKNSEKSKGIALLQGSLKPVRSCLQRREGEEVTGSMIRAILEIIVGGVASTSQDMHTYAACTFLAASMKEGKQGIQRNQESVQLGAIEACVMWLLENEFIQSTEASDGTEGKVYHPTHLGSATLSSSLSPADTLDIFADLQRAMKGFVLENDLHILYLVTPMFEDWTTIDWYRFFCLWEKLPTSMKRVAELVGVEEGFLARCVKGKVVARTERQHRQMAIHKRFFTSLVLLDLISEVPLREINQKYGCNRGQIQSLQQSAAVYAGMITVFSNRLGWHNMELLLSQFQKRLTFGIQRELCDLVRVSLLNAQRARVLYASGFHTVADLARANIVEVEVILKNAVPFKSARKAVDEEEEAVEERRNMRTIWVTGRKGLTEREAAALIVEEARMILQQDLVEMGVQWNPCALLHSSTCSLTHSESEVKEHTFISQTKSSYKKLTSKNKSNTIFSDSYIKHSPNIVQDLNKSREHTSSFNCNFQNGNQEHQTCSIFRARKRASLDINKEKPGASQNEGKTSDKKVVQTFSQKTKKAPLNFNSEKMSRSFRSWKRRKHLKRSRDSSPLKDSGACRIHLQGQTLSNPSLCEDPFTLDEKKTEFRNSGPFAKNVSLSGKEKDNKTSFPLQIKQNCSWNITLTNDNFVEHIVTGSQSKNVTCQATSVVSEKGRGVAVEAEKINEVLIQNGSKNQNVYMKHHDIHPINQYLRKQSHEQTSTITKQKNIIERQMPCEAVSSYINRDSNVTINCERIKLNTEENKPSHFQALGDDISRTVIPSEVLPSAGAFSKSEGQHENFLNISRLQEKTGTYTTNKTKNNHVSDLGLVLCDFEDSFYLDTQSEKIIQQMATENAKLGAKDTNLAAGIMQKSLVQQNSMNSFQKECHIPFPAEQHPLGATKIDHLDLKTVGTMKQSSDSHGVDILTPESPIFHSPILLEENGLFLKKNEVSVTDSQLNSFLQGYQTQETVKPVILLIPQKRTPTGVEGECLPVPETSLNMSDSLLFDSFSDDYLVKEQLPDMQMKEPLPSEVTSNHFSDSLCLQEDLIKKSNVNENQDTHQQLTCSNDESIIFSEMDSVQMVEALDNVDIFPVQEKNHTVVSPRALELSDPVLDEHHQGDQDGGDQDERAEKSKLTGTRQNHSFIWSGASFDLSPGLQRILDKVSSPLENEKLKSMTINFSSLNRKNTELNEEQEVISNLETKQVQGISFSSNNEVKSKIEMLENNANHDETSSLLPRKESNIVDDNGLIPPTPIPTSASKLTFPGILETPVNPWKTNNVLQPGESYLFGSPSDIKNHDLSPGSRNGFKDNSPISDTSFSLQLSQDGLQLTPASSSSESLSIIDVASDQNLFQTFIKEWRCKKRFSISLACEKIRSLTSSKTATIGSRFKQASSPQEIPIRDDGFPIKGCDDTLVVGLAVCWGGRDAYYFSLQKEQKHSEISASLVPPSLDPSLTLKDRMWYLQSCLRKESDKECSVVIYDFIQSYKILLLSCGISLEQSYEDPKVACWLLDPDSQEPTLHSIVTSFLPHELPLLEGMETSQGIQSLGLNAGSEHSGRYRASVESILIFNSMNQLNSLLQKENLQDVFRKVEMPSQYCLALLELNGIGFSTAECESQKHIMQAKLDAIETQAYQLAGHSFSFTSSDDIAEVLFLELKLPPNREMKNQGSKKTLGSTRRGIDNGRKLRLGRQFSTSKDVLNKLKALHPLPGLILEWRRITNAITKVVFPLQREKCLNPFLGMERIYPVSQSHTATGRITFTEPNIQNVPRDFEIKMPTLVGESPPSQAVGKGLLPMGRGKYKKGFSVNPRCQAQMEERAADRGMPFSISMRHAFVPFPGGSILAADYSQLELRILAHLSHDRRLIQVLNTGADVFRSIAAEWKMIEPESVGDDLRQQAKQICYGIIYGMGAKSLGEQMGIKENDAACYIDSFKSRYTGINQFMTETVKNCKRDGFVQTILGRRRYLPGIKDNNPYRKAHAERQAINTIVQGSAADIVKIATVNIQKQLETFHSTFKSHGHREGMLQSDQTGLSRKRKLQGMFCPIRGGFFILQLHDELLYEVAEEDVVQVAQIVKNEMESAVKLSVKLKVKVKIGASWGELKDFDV
UniProt P09874: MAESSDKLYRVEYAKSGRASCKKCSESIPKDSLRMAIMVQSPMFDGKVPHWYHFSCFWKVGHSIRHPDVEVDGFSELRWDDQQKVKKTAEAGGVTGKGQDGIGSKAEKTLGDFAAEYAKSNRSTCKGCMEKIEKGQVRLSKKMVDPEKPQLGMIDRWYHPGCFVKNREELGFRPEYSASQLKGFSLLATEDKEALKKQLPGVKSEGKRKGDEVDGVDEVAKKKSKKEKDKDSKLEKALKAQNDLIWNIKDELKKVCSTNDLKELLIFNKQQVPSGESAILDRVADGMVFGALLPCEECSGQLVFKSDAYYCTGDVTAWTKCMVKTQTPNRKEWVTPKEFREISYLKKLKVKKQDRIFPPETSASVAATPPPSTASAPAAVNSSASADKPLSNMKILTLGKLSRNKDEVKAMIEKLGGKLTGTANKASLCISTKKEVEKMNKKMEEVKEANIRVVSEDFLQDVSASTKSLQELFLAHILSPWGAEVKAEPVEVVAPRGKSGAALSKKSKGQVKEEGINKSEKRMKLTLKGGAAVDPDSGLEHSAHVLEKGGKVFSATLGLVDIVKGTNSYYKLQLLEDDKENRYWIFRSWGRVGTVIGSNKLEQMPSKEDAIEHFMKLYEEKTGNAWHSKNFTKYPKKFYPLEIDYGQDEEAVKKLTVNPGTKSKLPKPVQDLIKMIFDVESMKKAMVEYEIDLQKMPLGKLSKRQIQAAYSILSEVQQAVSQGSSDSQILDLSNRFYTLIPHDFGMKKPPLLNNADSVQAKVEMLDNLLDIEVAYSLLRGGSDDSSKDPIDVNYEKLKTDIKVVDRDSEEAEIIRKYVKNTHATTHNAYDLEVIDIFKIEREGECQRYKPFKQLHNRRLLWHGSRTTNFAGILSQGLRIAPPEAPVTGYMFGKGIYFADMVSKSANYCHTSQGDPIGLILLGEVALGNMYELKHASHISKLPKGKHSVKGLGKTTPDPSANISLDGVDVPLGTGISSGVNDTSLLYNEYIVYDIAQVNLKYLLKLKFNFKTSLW

Legend:
[1] = biological target: Polθ-FLAG-HA fusion protein (DNA polymerase theta) (human) (UniProt O75417); test: co-IP; anti-HA immunoprecipitates from total cell extracts of U2OS-EJ2-GFP cells expressing Polθ-FLAG-HA, 0, 20, 60 and 120 min after 10 Gy irradiation; Western blot
[2] = biological target: Polθ-FLAG-HA fusion protein (DNA polymerase theta) (human) (UniProt O75417); test: co-IP; lysate (IP lysis buffer) of 293T cells transiently expressing Polθ-FLAG-HA; anti-HA magnetic beads and anti-PARP1, 16-18 h at 4 °C; Western blot with anti-FLAG and anti-PARP1
[3] = biological target: Polθ-FLAG-HA fusion protein (DNA polymerase theta) (human) (UniProt O75417); test: co-IP; anti-HA and anti-γH2AX immunoprecipitates from chromatin extracts (sonicated) of U2OS wild-type and HPF1 KO cells expressing Polθ-FLAG-HA, 0-120 min after 10 Gy irradiation, with or without PARP1 inhibitor or PARG inhibitor; Western blot

Measured: binding

Poly(ADP-ribose) polymerase 1 (PARP1) (from UniProt P09874 1-1014)
binds: all assays above
